From PubChem BioAssay AID1508600 (Functional Genomics Laboratory (NCATS/FGL), 2020)
Screen size: about 53,000 sequences; about 3,700 (7%) were called active.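 The calls were made as follows: active = gene knockdowns whose robust z-score for IL-1 alpha signal is at least 2 or at most -2, so actives lie on both sides; inactive = the rest.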 The list shows a part of the results.

Assay: Components of the Cytosolic LPS Sensing Pathway: Gene Identification via Genome-wide siRNA Screen
Conditions: RAW264.7 macrophages, IL-1a HTRF, actives lie on both sides, screened at 100 nM (by protocol), cells primed 5 h with Pam3CSK4 first
Excerpt: Non-canonical inflammasome activation by cytosolic LPS is a critical component of the host response to Gram-negative bacterial infection, however we lack a comprehensive understanding of the cellular processes that control this pathway. Here we describe a genome-wide siRNA screen to identify genes regulating the mouse macrophage IL-1 alpha response to cytosolic LPS.
RAW264.7 cells were maintained in complete DMEM media, comprising DMEM with 4.5 g/L glucose, 10% FBS (Gemini Bio-Products, West Sacramento, CA), 2 mM Glutamine (Lonza) and 20 mM HEPES (Lonza), hereafter complete DMEM.
The RNAi screen was conducted in 384-well format using the Ambion Silencer Mouse Genome siRNA Library (#4391425), which consists of three unique, nonoverlapping, nonpooled siRNAs for each of 17,000 gene targets. siRNA reagents ([…]) were stamped into 384-well white flat-bottom microplates (Corning, 3570) using a Velocity11 VPrep liquid handling system (Agilent) integrated into a BioCel robotic platform (Agilent) in columns 1-22, leaving columns 23-24 empty for negative (Ambion, Negative control #1) and positive (mouse Casp4) controls, respectively. The median value of each plate's negative control column was used to normalize sample wells, and the positive control was used to assess transfection efficiency and assay performance.
Lipofectamine RNAiMAX Transfection Reagent ([…]; Invitrogen) was added in […] serum-free, antibiotic-free media to plate wells using a Thermo Scientific Matrix WellMate and Microplate Stacker. Plates were incubated for 45 min at room temperature to allow for the sufficient formation of siRNA-lipid complexes. Cells were seeded at a density of 1x10^4 cells per well in 20 microL media containing 20% (vol/vol) FBS without antibiotics. The final concentration of siRNA in each well was 100 nM. Cells were cultured for 48h at 37 degrees C in 5% CO2 before addition of […] of TLR ligand Pam3CSK4 for 5 hours. The medium was then removed, replaced with […] growth media and cell were transfected with […] of LipidA and TransIT-TKO (Mirus) for 24 hour. At the end of the LipidA treatment, […] of supernatant was transferred to a 384 Greiner Bio-one non-binding low volume plate and […] of IL-1a HTRF reagent (Cisbio, 62MIL1APEH) was added and incubated at room temperature overnight. The plates were read on an EnVision plate reader (PerkinElmer). Cell viability was measured by adding 20ul Cell Titer Glo to the original plate and running a luminescence read on the EnVision. The quantified IL-1a signal for each siRNA gene-targeted well was divided by the median of the negative control wells and multiplied by 100 to achieve a negative control normalized value for each well/siRNA. This normalized value was then used to generate a robust z-score by first taking the log of each value and then by subtracting the median and dividing by the […].

Row | Sequence | z-score
1 | GCAACAACCGCACAUCUCATT against Cdc26 | inactive: 1.33
2 | GCUAAUAUACCUCUCAAAATT against Zfp946 | inactive: 1.61
3 | GGCUAUUAUUGAGAGUUCATT against Tmem168 | inactive: 0.139
4 | GCCGUCUUAACACCUAUGGTT against Olfr690 | inactive: -0.21
5 | GCCACUUUUGUCAAGGAAATT against Supt16 | inactive: 0.183
6 | GCACUCCUUCGAUUUAAUCTT against Lpcat4 | inactive: -0.949
7 | GGAUGCUUUAACUUCAAACTT against Crebrf | active: 2.56
8 | GGGCCUUAGGCUAUUCCUATT against Otub2 | inactive: 0.156
9 | GGAUAUCAUUUCAUCUUGUTT against H3c7 | inactive: 0.405
10 | GGACCAGCACCAUUUCCUATT against Cramp1l | inactive: -0.675
11 | GGACUGGGAACUUCUUGACTT against B4galnt4 | inactive: 0.123
12 | GGACAACGAUAGCUAACCUTT against Tmem63a | inactive: 0.453
13 | GCCUCAACUCAAGCCUUCATT against Olfr525 | inactive: 0.0506
14 | GGAUGGAUAUCACAUAGAATT against Fcrls | inactive: 1.81
15 | GGAAAGAUGUGGUCCAGCUTT against Sirt3 | inactive: 0.373
16 | GGAUACCUGAAAAUUGAUATT against Npr1 | inactive: -0.667
17 | GGAGUUUUUAUUCAAGGAATT against Slc35b3 | inactive: -1.07
18 | CCGGAAAUAAAGGCGGAGUTT against Cd99 | inactive: 0.25
19 | GGCAGAUAGUACUGAUCAATT against Mucl2 | inactive: 0.16
20 | GCCUAAAAAGCUUCUUUAGTT against Amer1 | inactive: 0.15
21 | GGAUGAGGACACCAUUGAUTT against Sumo3 | inactive: 0.723
22 | GAUUUCUAUACAGCCUAUCTT against Olfr799 | inactive: 0.312
23 | GCAGAUUUGAAUUCAGACATT against Mup4 | inactive: 0.577
24 | GGAAACUCCAACUUGUUUGTT against Ankra2 | inactive: 1.18
25 | GGACUUCCACUCACGUUACTT against Ppp2r3d | inactive: 0.499
26 | CGGUGGUGUGAAGCCCAAUTT against Pm20d2 | inactive: 0.348
27 | GGAGGUAGCCCUUCAGAUGTT against Igdcc3 | inactive: 1.1

Already shown: entries from further up.
Row | Sequence | z-score
2 | GCUAAUAUACCUCUCAAAATT against Zfp946 | inactive: 1.61
3 | GGCUAUUAUUGAGAGUUCATT against Tmem168 | inactive: 0.139
4 | GCCGUCUUAACACCUAUGGTT against Olfr690 | inactive: -0.21

Next results follow:

Row | Sequence | z-score
28 | GCUCGAUGGAUUGUAAUCUTT against Efcab11 | inactive: -0.148
29 | CCACCUCCUCUCGAUACAATT against Zfp36 | inactive: 0.993
30 | GGCAAAGCUGUCUUAGAGGTT against Mettl23 | inactive: -1.35
31 | GGCCUCAUCUUGAAUAUUUTT against Hsd17b3 | inactive: -1
32 | GGGAGAACCGGAUGAGAUUTT against Itpa | inactive: -0.871
33 | GACCGAGGUCAACAGAGUGTT against Slc6a20b | inactive: 0.124
34 | GGAUUCCAGAGAAAUGUGATT against Lrrc66 | active: -2.62
35 | GGGUCAUCUUACCACAGUUTT against Nptxr | inactive: -1
36 | CCUGGUACAUCUCUGUUACTT against Olfr449 | inactive: 1.53
37 | GGUUUCAUCCUGGUGUAUATT against Rap2c | inactive: -1.33
38 | CCUUCUAGUUUGCCUCUGGTT against Olfr877 | inactive: 0.332
39 | CCAAGUCCAUUUCAUACUCTT against Ormdl3 | inactive: 1.94
40 | GGCAUUUCUCGACCUAUGGTT against Hoxc6 | inactive: 0.0965
41 | CCUUAAACCUCAGCUAAUGTT against Utp14b | inactive: 1.83
42 | AAAUCCUGUUAGGGAGUGUTT against Olfr57 | inactive: 0.96
43 | GGUUUUGUUGCAUGGUAAGTT against Ubb | inactive: -0.973
44 | CGAAACACACUGGUAAGUGTT against Col2a1 | inactive: -1.45
45 | GGCAUACCAAAAUCCAUUUTT against Egr1 | inactive: 1.2
46 | GGUUGAGAAGAAGAAGAAATT against Rpl6 | inactive: -0.0381
47 | GGCAUGUGCAUUUGCUACGTT against Lama1 | inactive: 0.375
48 | GGUCAUCAAUCUCACCACUTT against Tmem145 | inactive: -0.155
49 | GGAUCACAAGCUGGUGUUCTT against Mon1b | inactive: 1.84
50 | GCACAGAGUCUAGUGUUUATT against Ube2j2 | inactive: 0.325
51 | CGAGUGCUUCUCUUGACAUTT against Mrpl22 | inactive: -0.43
52 | GCAAUAAUGGCAAUUACGGTT against Slc35f4 | inactive: 1.13
53 | GGAGCUCAACGCAUUUUUCTT against Neurod2 | inactive: -0.0271
